Source: the supplement of paper PMC8728848
Some of the results follow.

Experiments:
Experiment in all cases: glycan array binding signal (z-score within array); higher = stronger binding
Details in all cases: glycan notation: IUPAC condensed, linker removed
[1] = molecular target: Neu5Ac(a2-3)[GalNAc(b1-4)]Gal(b1-4)GlcNAc(b1-3)GalNAc
In short: (§1)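 Glycan array data were curated from 3228 arrays in the Consortium for Functional Glycomics database and kept only where the protein sequence was available. Glycan names were converted to IUPAC-condensed notation, and columns mapping to the same glycan were averaged. The binding signal is a within-array Z-score, averaged across arrays of the same protein sequence at different concentrations or buffers and across linkers. Negative Z-scores can be read as non-binding.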

[2] = molecular target: Neu5Ac(a2-3)[Neu5Ac(a2-6)]GalNAc
In short: as §1

Neu5Ac(a2-6)Gal = molecular target: Neu5Ac(a2-6)Gal
In short: as §1

[3] = molecular target: Neu5Ac(a2-6)Gal(b1-3)GlcNAc(b1-3)[Gal(b1-4)GlcNAc(b1-6)]Gal(b1-4)Glc
In short: as §1

Neu5Ac(a2-6)Gal(b1-4)Glc = molecular target: Neu5Ac(a2-6)Gal(b1-4)Glc
In short: as §1

[4] = molecular target: Neu5Ac(a2-6)Gal(b1-4)GlcNAc
In short: as §1

[5] = molecular target: Neu5Ac(a2-6)Gal(b1-4)GlcNAc(b1-2)Man(a1-3)Man(b1-4)GlcNAc(b1-4)GlcNAc
In short: as §1

[6] = molecular target: Neu5Ac(a2-6)Gal(b1-4)GlcNAc(b1-2)Man(a1-3)[Gal(b1-4)GlcNAc(b1-2)Man(a1-6)]Man(b1-4)GlcNAc(b1-4)GlcNAc
In short: as §1

[7] = molecular target: Neu5Ac(a2-6)Gal(b1-4)GlcNAc(b1-2)Man(a1-3)[GlcNAc(b1-2)Man(a1-6)]Man(b1-4)GlcNAc(b1-4)GlcNAc
In short: as §1

[8] = molecular target: Neu5Ac(a2-6)Gal(b1-4)GlcNAc(b1-2)Man(a1-3)[GlcNAc(b1-2)Man(b1-4)GlcNAc(b1-2)Man(a1-6)]Man(b1-4)GlcNAc(b1-4)GlcNAc
In short: as §1

[9] = molecular target: Neu5Ac(a2-6)Gal(b1-4)GlcNAc(b1-2)Man(a1-3)[Man(a1-6)]Man(b1-4)GlcNAc(b1-4)GlcNAc
In short: as §1

[10] = molecular target: Neu5Ac(a2-6)Gal(b1-4)GlcNAc(b1-2)Man(a1-3)[Neu5Ac(a2-6)Gal(b1-4)GlcNAc(b1-2)Man(a1-6)]Man(b1-4)GlcNAc(b1-4)GlcNAc
In short: as §1

[11] = molecular target: Neu5Ac(a2-6)Gal(b1-4)GlcNAc(b1-2)Man(a1-6)Man(b1-4)GlcNAc(b1-4)GlcNAc
In short: as §1

[12] = molecular target: Neu5Ac(a2-6)Gal(b1-4)GlcNAc(b1-2)Man(a1-6)[Gal(b1-4)GlcNAc(b1-2)Man(a1-3)]Man(b1-4)GlcNAc(b1-4)GlcNAc
In short: as §1

[13] = molecular target: Neu5Ac(a2-6)Gal(b1-4)GlcNAc(b1-2)Man(a1-6)[GlcNAc(b1-2)Man(a1-3)]Man(b1-4)GlcNAc(b1-4)GlcNAc
In short: as §1

[14] = molecular target: Neu5Ac(a2-6)Gal(b1-4)GlcNAc(b1-2)Man(a1-6)[Man(a1-3)]Man(b1-4)GlcNAc(b1-4)GlcNAc
In short: as §1

[15] = molecular target: Neu5Ac(a2-6)Gal(b1-4)GlcNAc(b1-3)Gal(b1-3)GlcNAc
In short: as §1

[16] = molecular target: Neu5Ac(a2-6)Gal(b1-4)GlcNAc(b1-3)Gal(b1-4)GlcNAc
In short: as §1

[17] = molecular target: Neu5Ac(a2-6)Gal(b1-4)GlcNAc(b1-3)Gal(b1-4)GlcNAc(b1-3)Gal(b1-4)GlcNAc
In short: as §1

[18] = molecular target: Neu5Ac(a2-6)Gal(b1-4)GlcNAc(b1-3)Gal(b1-4)[Fuc(a1-3)]GlcNAc(b1-3)Gal(b1-4)[Fuc(a1-3)]GlcNAc
In short: as §1

[19] = molecular target: Neu5Ac(a2-6)Gal(b1-4)GlcNAc(b1-3)GalNAc
In short: as §1

[20] = molecular target: Neu5Ac(a2-6)Gal(b1-4)GlcNAc6S
In short: as §1

Neu5Ac(a2-6)GalNAc = molecular target: Neu5Ac(a2-6)GalNAc
In short: as §1

[21] = molecular target: Neu5Ac(a2-6)GalNAc(b1-4)GlcNAc
In short: as §1

[22] = molecular target: Neu5Ac(a2-6)GlcNAc(b1-4)GlcNAc
In short: as §1

[23] = molecular target: Neu5Ac(a2-6)GlcNAc(b1-4)GlcNAc(b1-4)GlcNAc
In short: as §1

Neu5Ac(a2-8)Neu5Ac = molecular target: Neu5Ac(a2-8)Neu5Ac
In short: as §1

[24] = molecular target: Neu5Ac(a2-8)Neu5Ac(a2-3)Gal(b1-3)GalNAc(b1-4)[Neu5Ac(a2-8)Neu5Ac(a2-3)]Gal(b1-4)Glc
In short: as §1

[25] = molecular target: Neu5Ac(a2-8)Neu5Ac(a2-3)Gal(b1-4)Glc
In short: as §1

[26] = molecular target: Neu5Ac(a2-8)Neu5Ac(a2-3)[Gal(b1-3)GalNAc(b1-4)]Gal(b1-4)Glc
In short: as §1

[27] = molecular target: Neu5Ac(a2-8)Neu5Ac(a2-3)[GalNAc(b1-4)]Gal(b1-4)Glc
In short: as §1

[28] = molecular target: Neu5Ac(a2-8)Neu5Ac(a2-8)Neu5Ac
In short: as §1

[29] = molecular target: Neu5Ac(a2-8)Neu5Ac(a2-8)Neu5Ac(a2-3)Gal(b1-4)Glc
In short: as §1

[30] = molecular target: Neu5Ac(a2-8)Neu5Ac(a2-8)Neu5Ac(a2-3)[GalNAc(b1-4)]Gal(b1-4)Glc
In short: as §1

[31] = molecular target: Neu5Ac(a2-8)Neu5Ac(a2-8)Neu5Ac(a2-8)Neu5Ac(a2-3)[GalNAc(b1-4)]Gal(b1-4)Glc
In short: as §1

[32] = molecular target: Neu5Ac(b2-6)Gal(b1-4)GlcNAc
In short: as §1

Neu5Ac(b2-6)GalNAc = molecular target: Neu5Ac(b2-6)GalNAc
In short: as §1

[33] = molecular target: Neu5Ac9Ac(a2-3)Gal(b1-3)GlcNAc
In short: as §1

B1: PGP3 (Chlamydia trachomatis), P0CE18 (protein)
chain: MGNSGFYLYNTQNCVFADNIKVGQMTEPLKDQQIILGTTSTPVAAKMTASDGISLTVSNNPSTNASITIGLDAEKAYQLILEKLGDQILGGIADTIVDSTVQDILDKITTDPSLGLLKAFNNFPITNKIQCNGLFTPRNIETLLGGTEIGKFTVTPKSSGSMFLVSADIIASRMEGGVVLALVREGDSKPYAISYGYSSGVPNLCSLRTRIINTGLTPTTYSLRVGGLESGVVWVNALSNGNDILGITNTSNVSFLEVIPQTNA
With B1 the “glycan array binding signal (z-score)” value [1] was 0.646, the “glycan array binding signal (z-score)” value [2] was 0.358 and the “glycan array binding signal (z-score)” value (Neu5Ac(a2-6)Gal) was 0.553. The “glycan array binding signal (z-score)” value [3] was 0.508, the “glycan array binding signal (z-score)” value (Neu5Ac(a2-6)Gal(b1-4)Glc) was -0.027 and the “glycan array binding signal (z-score)” value [4] was 0.565. For the same binder, the “glycan array binding signal (z-score)” value [5] was 0.871, the “glycan array binding signal (z-score)” value [6] was 1.21 and the “glycan array binding signal (z-score)” value [7] was 0.031. The “glycan array binding signal (z-score)” value [8] was 0.983, the “glycan array binding signal (z-score)” value [9] was -0.215 and the “glycan array binding signal (z-score)” value [10] was 0.306. The “glycan array binding signal (z-score)” value [11] was -0.576, the “glycan array binding signal (z-score)” value [12] was -0.106 and the “glycan array binding signal (z-score)” value [13] was 0.791. The “glycan array binding signal (z-score)” value [14] was -0.005, the “glycan array binding signal (z-score)” value [15] was -0.316 and the “glycan array binding signal (z-score)” value [16] was 1.37. For the same binder, the “glycan array binding signal (z-score)” value [17] was -0.565, the “glycan array binding signal (z-score)” value [18] was 0.136 and the “glycan array binding signal (z-score)” value [19] was -0.403. For the same binder, the “glycan array binding signal (z-score)” value [20] was -0.798, the “glycan array binding signal (z-score)” value (Neu5Ac(a2-6)GalNAc) was -1.18 and the “glycan array binding signal (z-score)” value [21] was 0.096. The “glycan array binding signal (z-score)” value [22] was -1.37, the “glycan array binding signal (z-score)” value [23] was -0.842 and the “glycan array binding signal (z-score)” value (Neu5Ac(a2-8)Neu5Ac) was -0.486. For the same binder, the “glycan array binding signal (z-score)” value [24] was 1.02, the “glycan array binding signal (z-score)” value [25] was -0.424 and the “glycan array binding signal (z-score)” value [26] was 0.121. The “glycan array binding signal (z-score)” value [27] was -0.121, the “glycan array binding signal (z-score)” value [28] was 1.11 and the “glycan array binding signal (z-score)” value [29] was 2.79. The “glycan array binding signal (z-score)” value [30] was -0.269, the “glycan array binding signal (z-score)” value [31] was 0.056 and the “glycan array binding signal (z-score)” value [32] was -1.25. The “glycan array binding signal (z-score)” value (Neu5Ac(b2-6)GalNAc) was 0.49 and the “glycan array binding signal (z-score)” value [33] was 2.73.
